Here are results for 42 sequences from article PMC7819943, “Rice protein-binding microarrays: a tool to detect cis-acting elements near promoter regions in rice”.

The chains behind the UniProt entries cited, without tags or fusion partners.
UniProt Q0JBA9, entry or part of it: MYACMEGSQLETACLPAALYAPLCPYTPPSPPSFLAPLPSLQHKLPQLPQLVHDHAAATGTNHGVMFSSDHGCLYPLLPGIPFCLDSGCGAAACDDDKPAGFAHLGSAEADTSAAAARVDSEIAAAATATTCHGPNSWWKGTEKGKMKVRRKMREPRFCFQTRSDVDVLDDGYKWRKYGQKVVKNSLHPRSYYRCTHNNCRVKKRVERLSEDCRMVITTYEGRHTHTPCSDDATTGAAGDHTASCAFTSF

Some of the results follow.

The target of the test is OsWRKY34 (Oryza sativa, UniProt Q0JBA9 1-250). Kind of test: protein-binding microarray (RPBM); PBS, 2% BSA, 51.3 ng/ul salmon testes DNA, 50 uM zinc acetate, 200 nM TF, 25 C, 1 h; high values mean tight binding. The settings on record: protein: recombinant; tags: N-terminal polyhistidine and DsRed monomer fusion (pET32a); label: CyDye5-dUTP incorporated in the synthesized complementary strand; 3' TTTTT single-stranded linker to array surface; dsDNA, one strand shown. A digest of the protocol: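 Using Ni–NTA, transcription factors fused N-terminally to polyhistidine and DsRed were purified after expression in E. coli BL21-CodonPlus. These were incubated at 200 nM with a blocked, double-stranded custom Agilent array for 1 h at 25 °C in a buffer containing 50 µM zinc acetate, and the array was washed. The binding signal is per-feature fluorescence intensity (arbitrary units) on an Axon 4000B scanner.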
With “TTGAACACCCGTGCCGACGGACGGCCTACTTCTTTCTCATCGGAGTCACCTAGTGCAG”, the binding signal was 9940 fluorescence intensity (a.u.).

“CTTATACTTTATATCAATTATGTTATTTCTCATCATCGTACGGAGTCACCTAGTGCAG”: the binding signal is 8420 fluorescence intensity (a.u.).

For “TGTGTGTGTATATATATGTAGCCTGTTCGCACATCATCTTCGGAGTCACCTAGTGCAG”, the binding signal is 13600 fluorescence intensity (a.u.).

In the case of “CACCGCCCACCTCCGCCGCCGCCAACCCGCCGCCCACGCGCGGAGTCACCTAGTGCAG”, the binding signal was 14000 fluorescence intensity (a.u.).

For “GTACGTTGGTTTCCTCTTGGAGTTTTACACGAAGGAATTGCGGAGTCACCTAGTGCAG”, the binding signal is 8630 fluorescence intensity (a.u.).

With “TCTTCCCGGTTTCTCTTTCCAGCTTTCACTTTGACCTTAGCGGAGTCACCTAGTGCAG”, the binding signal was 12400 fluorescence intensity (a.u.).

“CGCCGCGCAGCTCGCCCGGGACGTCGCCCGTCTCCAGCCGCGGAGTCACCTAGTGCAG”: the binding signal is 8070 fluorescence intensity (a.u.).

For the sequence “TGTGTAATCCTTTTACGCGTTGGCGAAAATACTTTACGATCGGAGTCACCTAGTGCAG”, the binding signal is 8360 fluorescence intensity (a.u.).

“GGAAGGCAGGAAAGCCATCTGTTTTTTTTTTTCCTTTCACCGGAGTCACCTAGTGCAG”: the binding signal was 8870 fluorescence intensity (a.u.).

In the case of “CCTCCTCGCCCACCACCCCTCGACCTGCGAAGCCAAACAACGGAGTCACCTAGTGCAG”, the binding signal is 8620 fluorescence intensity (a.u.).

As to “GTCTATCTATCTATCTATCCATCTACTCACTCCATCCTAACGGAGTCACCTAGTGCAG”, the binding signal is 8300 fluorescence intensity (a.u.).

In the case of “TTGCGGCTAGGGCTTTCGGGGTTTTCCTCTTTTTCAAATTCGGAGTCACCTAGTGCAG”, the binding signal was 10000 fluorescence intensity (a.u.).

Regarding “CGACTTGTGCACCCATAACATCCTCATCTCCTGCTGCTGCCGGAGTCACCTAGTGCAG”, the binding signal was 8670 fluorescence intensity (a.u.).

Take “GCCCGCGCCGTCTACCAGGACGCCGACGTCTACCTCCTCGCGGAGTCACCTAGTGCAG”: the binding signal is 8470 fluorescence intensity (a.u.).

Consider “TGTTTGTGAATATTTTCTGCTGGCTACTCCTAATAATAAGCGGAGTCACCTAGTGCAG”, for which the binding signal is 9610 fluorescence intensity (a.u.).

As for “CTTTTTCTTGAGAATTTCTGTCTGAAGAAATTGCTTAGTACGGAGTCACCTAGTGCAG”, the binding signal was 15700 fluorescence intensity (a.u.).

For the sequence “TGTTCCTTCCGGCCCAGCCCACCGCGTCGCGCCTGTCCCACGGAGTCACCTAGTGCAG”, the binding signal is 9110 fluorescence intensity (a.u.).

Turning to “TAATAGCAGGTACAACACTACTACGCAACTCATTTTCCTGCGGAGTCACCTAGTGCAG”, the binding signal was 9180 fluorescence intensity (a.u.).

As to “TCTGGTTGATTGATCGATTTGGGGAATTGGGGATCTAGCTCGGAGTCACCTAGTGCAG”, the binding signal was 12000 fluorescence intensity (a.u.).

Turning to “TTCCTCTCTGCTCGTGTGCTGCGCGCCTTCGTTGACGTCCCGGAGTCACCTAGTGCAG”, the binding signal is 9040 fluorescence intensity (a.u.).

On to “GTACCACTTTCTCTATTTTTCATGTGTTTTTTAATTCTTACGGAGTCACCTAGTGCAG”, for which the binding signal was 9980 fluorescence intensity (a.u.).

As to “GTACATGTTGCTATTTTTTGGATGGAGTGAGTATATTTTTCGGAGTCACCTAGTGCAG”, the binding signal is 9300 fluorescence intensity (a.u.).

As to “CGCCGCCGTCGCCGCCGCCGCCGCATCCGCATCCGCATCCCGGAGTCACCTAGTGCAG”, the binding signal is 8200 fluorescence intensity (a.u.).

As to “AGTAGCACTTAAGCCTTCCTCTCTAGCTAGCATCTCTTGTCGGAGTCACCTAGTGCAG”, the binding signal was 8400 fluorescence intensity (a.u.).

In the case of “AACTGAGAACCCTAATTCTTGTAGGGCCATGTTCAATCGCCGGAGTCACCTAGTGCAG”, the binding signal was 9050 fluorescence intensity (a.u.).

As to “CGATTATTCCTGATGTTGCAATTGCCATCCTCCGTCACCCCGGAGTCACCTAGTGCAG”, the binding signal is 10000 fluorescence intensity (a.u.).

As for “GGATAGACAGTTTCCTTTGATCATGTGACGTTTGATTATTCGGAGTCACCTAGTGCAG”, the binding signal was 8570 fluorescence intensity (a.u.).

As to “GCGCACCTTTTCTTCTACCAGTGGAGGTCCATCTTGTACTCGGAGTCACCTAGTGCAG”, the binding signal was 8840 fluorescence intensity (a.u.).

Take “TCCGCCGCGGCCACCACCCTCACCCTCACCCTCGTCGCCACGGAGTCACCTAGTGCAG”: the binding signal is 9260 fluorescence intensity (a.u.).

For the sequence “GTGGAGGGTGGGGTGACGTGGTTTCCGGGTTGGTGCAATGCGGAGTCACCTAGTGCAG”, the binding signal is 13300 fluorescence intensity (a.u.).

In the case of “CTATTTGGTCGACTGTCAGCATTTTGCCCTTGACGCTCATCGGAGTCACCTAGTGCAG”, the binding signal was 8860 fluorescence intensity (a.u.).

With “GTAGCTGACATACCTGTTGATATTGTGTCGTCCGTAGTGACGGAGTCACCTAGTGCAG”, the binding signal was 8230 fluorescence intensity (a.u.).

In the case of “CATGTGTTTTTCCTATATTTTCCAATCCTCTGTTTTATACCGGAGTCACCTAGTGCAG”, the binding signal was 10600 fluorescence intensity (a.u.).

As to “CGAACCTTCCACACACAGACTAGGAGCTTAGAATCTCACCCGGAGTCACCTAGTGCAG”, the binding signal is 8450 fluorescence intensity (a.u.).

Turning to “ATCCCTCTTTTCACATTTGTTTGTTCTCACTATATTGTTCCGGAGTCACCTAGTGCAG”, the binding signal was 9380 fluorescence intensity (a.u.).

For the sequence “CTAAATGTTACATACGCGTTGGTGGGGCCGGGGCGGCAGTCGGAGTCACCTAGTGCAG”, the binding signal was 13200 fluorescence intensity (a.u.).

For “CTGCTAGTCACATCATTGCTCCACTTCACCATCTTGTCATCGGAGTCACCTAGTGCAG”, the binding signal is 10800 fluorescence intensity (a.u.).

Regarding “AATTCCTGGTGTTAAGCTCTGTGTGGTGTGTGCTCCTATTCGGAGTCACCTAGTGCAG”, the binding signal was 9090 fluorescence intensity (a.u.).

On to “ATCTCTCCGAATTCTCCCCATCATCGCCATCGACGGCTTCCGGAGTCACCTAGTGCAG”, for which the binding signal is 10200 fluorescence intensity (a.u.).

Consider “CTTCCTCGCGCCGCCACCGCCGCCGCCTCCGCCTCGCACACGGAGTCACCTAGTGCAG”, for which the binding signal is 8500 fluorescence intensity (a.u.).

With “GGATACTGCACAGCCCTTGATCACAATACAGTGCATTTCTCGGAGTCACCTAGTGCAG”, the binding signal is 9450 fluorescence intensity (a.u.).

Consider “TATGATTAAACCGAAGCTCATCTGTGGCCCATTACTGCCCCGGAGTCACCTAGTGCAG”, for which the binding signal was 8040 fluorescence intensity (a.u.).
